Test results from article doi:10.1101/2020.06.27.175620 (bioRxiv, 2020).
Where two headings read alike, the source gives them in different places. Results are given in words; binding and its absence hold for the method and conditions named. Binding seen in cells or lysates may run through a third protein. Binding calls can cover weak binding; strength is not graded here. Blank lines part the entries; values can stand above or below the molecule they belong to.

Sequences of proteins named here, by UniProt entry; tags and fusion partners are left off. A change or cut given only in a name is not applied to a line headed by its entry.
UniProt D5ARP5: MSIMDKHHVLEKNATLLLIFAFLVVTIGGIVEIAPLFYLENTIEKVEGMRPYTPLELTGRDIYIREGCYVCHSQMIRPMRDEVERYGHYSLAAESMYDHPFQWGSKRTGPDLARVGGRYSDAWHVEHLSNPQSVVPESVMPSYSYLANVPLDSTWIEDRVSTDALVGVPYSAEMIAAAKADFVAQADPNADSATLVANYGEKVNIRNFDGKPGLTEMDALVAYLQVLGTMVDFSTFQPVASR
UniProt Q05389: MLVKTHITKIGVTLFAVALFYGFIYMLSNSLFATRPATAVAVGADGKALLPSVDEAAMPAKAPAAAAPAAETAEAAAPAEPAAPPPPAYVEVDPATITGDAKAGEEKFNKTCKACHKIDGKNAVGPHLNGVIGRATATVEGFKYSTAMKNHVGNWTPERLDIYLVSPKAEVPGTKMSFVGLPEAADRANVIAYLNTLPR

Experiments:
Test in all cases: cross-linking
[1] = target: T1, Rieske FeS protein of CIII2 (Rhodobacter capsulatus) (UniProt D5ANZ2)
T1 sequence: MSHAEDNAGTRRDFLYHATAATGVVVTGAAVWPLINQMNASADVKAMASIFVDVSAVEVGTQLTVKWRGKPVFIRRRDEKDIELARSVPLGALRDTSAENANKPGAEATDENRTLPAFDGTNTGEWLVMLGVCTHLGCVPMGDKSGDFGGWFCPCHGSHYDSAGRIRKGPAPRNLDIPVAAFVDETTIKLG

[2] = target: T1, Rieske FeS protein of CIII2 (Rhodobacter capsulatus); remark: listed apart in the source
[3] = target: T2, cytochrome c1 of CIII2 (Rhodobacter capsulatus) (UniProt D5ANZ4)
T2 sequence: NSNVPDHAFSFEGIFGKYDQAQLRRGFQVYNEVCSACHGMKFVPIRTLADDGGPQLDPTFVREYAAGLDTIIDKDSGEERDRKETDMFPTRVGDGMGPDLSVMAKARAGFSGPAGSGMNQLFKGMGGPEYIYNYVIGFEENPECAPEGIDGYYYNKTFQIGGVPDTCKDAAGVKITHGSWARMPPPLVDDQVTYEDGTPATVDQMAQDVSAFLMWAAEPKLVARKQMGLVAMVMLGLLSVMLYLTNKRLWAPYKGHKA

[4] = target: CcoO subunit of the cbb3-type CIV (Rhodobacter capsulatus) (UniProt D5ARP5)

- binding [1]: binds weakly
- binding [2]: binds weakly
- binding [3]: binds weakly
Molecule: cyt c domain of cytochrome cy (from UniProt Q05389) (domain or fragment)

- binding [4]: binds
B1: cytochrome c2 (soluble cytochrome c) (protein, UniProt P00094 22-137)
chain: GDAAKGEKEFNKCKTCHSIIAPDGTEIVKGAKTGPNLYGVVGRTAGTYPEFKYKDSIVALGASGFAWTEEDIATYVKDPGAFLKEKLDDKKAKTGMAFKLAKGGEDVAAYLASVVK
